This is one part of the list. This data set is noisy: repeats of one test often differ as much as different tests do.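 ATM8/balancer (normal ATM) heterozygous flies were crossed on treated food; parents laid eggs 5–6 days, offspring developed ~12 days, so parents and larvae ingested compound. Readout: fraction of emerged adults homozygous for ATM8 versus 2% DMSO controls. Compounds were neutral at 10–20% homozygotes, harmful below 10%, helpful above 20%.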 Peptide text beside a SMILES is read from it.

For this assay, the system named is Drosophila melanogaster ATM8 (temperature-sensitive ATM allele). The experiment in a line: fraction of eclosed F1 progeny that are homozygous ATM8 (rescue of developmental lethality); higher = more rescue of ATM8 developmental lethality; extreme values may be limits of the assay. The conditions noted are these: compound concentration applied to food 0.2 mM; 21 °C.
`c1ccc2[nH]c(-c3cscn3)nc2c1`: the “fraction of eclosed F1 progeny that are homozygous ATM8” value (shortened to “fraction”) amounted to 0.0698.
Turning to `CC1(C)[C@H]2CC[C@]1(CS(=O)(=O)O)C(=O)C2=Cc1ccc(C=C2C(=O)[C@@]3(CS(=O)(=O)O)CC[C@@H]2C3(C)C)cc1`, the “fraction” value turned out to be 0.0526.
For the compound `NC(=O)NC(=O)Cc1ccccc1`, the “fraction” value is 0.366.
For `COc1ccc(C(=O)c2ccc(C)cc2)c(O)c1` the value was 0.222; for `COC(=O)C[C@H]1C(C)(C)[C@@H](O)[C@@H]2CC3=C4CC(O)O[C@@H](c5ccoc5)[C@]4(C)CCC3[C@@]1(C)C2=O` (stereo partly drawn) [3,16-DIDEOXYMEXICANOLIDE-3beta-DIOL], 0.0513; for `CC(C)CC(NC(=O)CN)C(=O)NC(Cc1ccccc1)C(=O)O` (stereo not drawn) (H-Gly-Leu-Phe-OH; configuration not given here), 0.0652.
Take `C/C=N/N(C)C=O`: the “fraction” value is 0.0667.
In the case of `Cn1c(=O)cc(N2CCC[C@@H](N)C2)n(Cc2ccccc2C#N)c1=O`, the “fraction” value is 0.0652.
`O=c1c2cc(O)c(O)cc2oc2cc(O)c([C@@H]3O[C@H](CO)[C@@H](O)[C@H](O)[C@H]3O)c(O)c12`: the “fraction” value turned out to be 0.149.
For the compound `C=C1C[C@]23C[C@@]1(O)CC[C@H]2[C@@]12C=C[C@H](O)[C@@](C)(C(=O)O1)[C@H]2[C@@H]3C(=O)O`, the “fraction” value is 0.0962.
The figure for `Cc1cccc(CN2CCN(C(c3ccccc3)c3ccc(Cl)cc3)CC2)c1` (stereo not given) is 0.243.
As for `O=C([O-])[C@H](O)[C@@H](O)[C@H](O)[C@H](O)CO.[Na+]`, the “fraction” value is 0.0435.
`CCOc1ccc(S(=O)(=O)O)c2cccnc12`: the “fraction” value came to 0.093.
As for `O=C(O)CCC(=O)Nc1ccc(S(=O)(=O)Nc2nccs2)cc1`, the “fraction” value came out at 0.12.
Turning to `COc1cnc(NS(=O)(=O)c2ccc(N)cc2)nc1`, the “fraction” value came to 0.205.
On to `O=NN(CCCl)C(=O)NC1CCCCC1`, for which the “fraction” value was determined as 0.
With `COc1ccccc1O`, the “fraction” value turned out to be 0.22.
The figure for `CCOC(=O)C1=C[C@]2(CC)CCCN3CCc4c(n1c1ccccc41)[C@@H]32` is 0.116; for `CC(=O)OCC(=O)[C@@]1(O)CC[C@H]2[C@@H]3C[C@H](C)C4=CC(=O)C=C[C@]4(C)[C@H]3[C@@H](O)C[C@@]21C` [6alpha-METHYLPREDNISOLONE ACETATE] it is 0.0488; for `CC(=O)OC1CCC2(C)C3=C(CC[C@H]2C1(C)C)[C@@]1(C)CC[C@@H]([C@@H](C)CCC=C(C)C)[C@]1(C)CC3` (stereo not given in full) it is 0.146.
The figure for `CC(=O)OCC1=C(C(=O)O)N2C(=O)[C@@H](NC(=O)CSc3ccncc3)[C@H]2SC1` is 0.025; for `O=C1OC2(c3ccc(O)cc3Oc3cc(O)ccc32)c2ccccc21` it is 0.186; for `CC[C@H]1OC(=O)[C@H](C)C(=O)[C@H](C)[C@@H](O[C@@H]2O[C@H](C)C[C@H](N(C)C)[C@H]2O)[C@](C)(OC)C[C@@H](C)C(=O)[C@H](C)[C@H]2N(CCCCn3cnc(-c4cccnc4)c3)C(=O)O[C@]12C` it is 0.294.
For `CCCCOc1cc(C(=O)NCCN(CC)CC)c2ccccc2n1` the value was 0.0488; for `COc1cc(OC)c2c(c1)OC(c1ccccc1)CC2=O` (stereo not given), 0.0714.
For the compound `O=C1CCc2cc(OCCCCc3nnnn3C3CCCCC3)ccc2N1`, the “fraction” value is 0.4.
As for `CCS(=O)(=O)CCn1c([N+](=O)[O-])cnc1C`, the “fraction” value came to 0.268.
Take `CCC1=C(C)CN(C(=O)NCCc2ccc(S(=O)(=O)NC(=O)N[C@H]3CC[C@H](C)CC3)cc2)C1=O`: the “fraction” value was 0.279.
Take `C[C@@]12C[C@@]3(O)O[C@@H](O1)[C@]1(COC(=O)c4ccccc4)[C@H]3C[C@@]12O[C@@H]1O[C@H](CO)[C@@H](O)[C@H](O)[C@H]1O`: the “fraction” value is 0.257.
The figure for `Sc1nc2ccccc2s1` is 0.108; for `CCOCCOc1ccccc1C(N)=O` it is 0.152; for `COc1ccc2cc1Oc1ccc(cc1)C[C@H]1c3cc(c(OC)cc3CCN1C)Oc1c(OC)c(OC)cc3c1[C@H](C2)N(C)CC3` it is 0.
As for `COC(=O)C[C@H]1C(C)(C)C(=O)[C@@H]2CC3=C4CC(=O)O[C@@H](c5ccoc5)[C@]4(C)CC[C@@H]3[C@@]1(C)C2=O`, the “fraction” value stood at 0.
On to `CC(=O)N[C@@H]([C@@H](O)[C@H](O)[C@H](O)CO)[C@@H](O)CC(=O)C(=O)O`, for which the “fraction” value stood at 0.136.
Take `CC1CC(Cl)CCC1C(=O)OC(C)(C)C` (stereo not given): the “fraction” value is 0.164.
As to `CCCCCCc1ccc(O)cc1O`, the “fraction” value was 0.0732.
`CC1(C)NC(=O)N(c2ccc([N+](=O)[O-])c(C(F)(F)F)c2)C1=O`: the “fraction” value is 0.167.
`CC(C)(c1ccc(O)cc1)c1ccc(O)cc1`: the “fraction” value is 0.158.
For the compound `C=C(C)[C@@H]1CC=C(C(=O)O)CC1`, the “fraction” value came out at 0.0606.
As to `COC(=O)[C@@H]1[C@H]2C[C@H]3c4[nH]c5ccccc5c4CCN3C[C@@H]2CC[C@@H]1O`, the “fraction” value amounted to 0.207.
Regarding `C[C@]12C=CC(=O)C=C1CC[C@@H]1[C@@H]2[C@@H](O)C[C@@]2(C)[C@H]1CC[C@]2(O)C(=O)COC(=O)CCC(=O)O`, the “fraction” value amounted to 0.0256.
The figure for `O=C(O)c1cc(-c2ccc(F)cc2F)ccc1O` is 0.0769; for `COc1ccccc1N1CCNCC1` it is 0.05; for `CCCCNC(=O)NS(=O)(=O)c1ccc(C)cc1` it is 0.122.
With `COC(=O)c1c(C)cc(O)cc1O`, the “fraction” value came out at 0.038.
For `CCOC(=O)OC(C)OC1=C(C(=O)Nc2ccccn2)N(C)S(=O)(=O)c2ccccc21` (stereo not given) the value was 0.2; for `CC(=O)[C@H]1CC[C@H]2[C@@H]3C[C@H](C)C4=CC(=O)CC[C@]4(C)[C@H]3[C@@H](O)C[C@]12C`, 0.0312; for `CCn1cc(C(=O)O)c(=O)c2cnc(N3CCCC3)nc21`, 0.116.
For `O=S(=O)(O)CCS` the value was 0.0909.
The figure for `CCCCCCCCCCCCC[N+](C)(C)Cc1ccccc1` is 0.0645; for `CC(C)(C)NC[C@H](O)c1ccc(O)c(CO)c1` it is 0.238; for `CCOc1cc(C=O)ccc1O` it is 0.145.
Consider `CC(C)Nc1ncccn1`, for which the “fraction” value came out at 0.0682.
Regarding `COc1ccc(C(=O)/C=C/c2ccccc2)cc1`, the “fraction” value was 0.0392.
For the compound `C1CCN2C[C@@H]3C[C@H](CN4CCCC[C@@H]34)[C@H]2C1`, the “fraction” value was found to be 0.107.
Take `CC(=O)OCC(=O)[C@@]12N=C(C)O[C@@H]1C[C@H]1[C@@H]3CCC4=CC(=O)C=C[C@]4(C)[C@H]3[C@@H](O)C[C@@]12C`: the “fraction” value is 0.0606.
As for `CC(=O)Nc1ccc(CC(=O)O)cc1`, the “fraction” value came out at 0.122.
Turning to `Cc1nc2n(c(=O)c1CCN1CCC(c3noc4cc(F)ccc34)CC1)CCCC2`, the “fraction” value was determined as 0.156.
Turning to `C=C1C[C@@H]2[C@H](CC[C@]3(C)C(=O)CC[C@@H]23)[C@@]2(C)C=CC(=O)C=C12`, the “fraction” value was found to be 0.
Turning to `CCN1CC(CCN2CCOCC2)C(c2ccccc2)(c2ccccc2)C1=O` (stereo not given), the “fraction” value turned out to be 0.
In the case of `C=C1C(=O)O[C@@H]2C[C@@]3(C)CCC[C@H](C)C3=C[C@H]12`, the “fraction” value stood at 0.178.
With `O=C(O)CCCCCCCCCCCC(=O)O`, the “fraction” value stood at 0.175.
For `CCCCCCCCCCCCCCCC[n+]1ccccc1` the value was 0.0682; for `N[C@@H](C(=O)N[C@@H]1C(=O)N2C(C(=O)O)=C(Cl)CS[C@H]12)c1ccccc1`, 0.0889.
Turning to `C=CCC1(C(C)CCC)C(=O)NC(=S)NC1=O` (stereo not given), the “fraction” value came out at 0.192.
Take `COc1ccc(C(=O)NCc2ccc(OCCN(C)C)cc2)cc1OC`: the “fraction” value is 0.102.
The figure for `COc1ccc(-c2cc(C(F)F)nn2-c2ccc(S(N)(=O)=O)cc2)cc1F` is 0.256.
As to `C[C@@H]1CC[C@@]2(OC1)O[C@H]1C[C@H]3[C@@H]4CC[C@@H]5C[C@@H](O)CC[C@]5(C)[C@H]4CC[C@]3(C)[C@H]1[C@@H]2C`, the “fraction” value is 0.0625.
For `OC[C@H]1O[C@@H](O[C@@H]2[C@@H](CO)OC(O)(CO)[C@H]2O)[C@H](O)[C@@H](O)[C@H]1O` (mixture of isomers) the value was 0.118; for `c1ccc(/N=N/c2ccccc2)cc1`, 0; for `CN(C)[C@@H]1C(O)=C(C(N)=O)C(=O)[C@@]2(O)C(O)=C3C(=O)c4c(O)ccc(Cl)c4[C@@H](O)[C@H]3C[C@@H]12`, 0.
With `NC(N)=O`, the “fraction” value was found to be 0.0638.
For `COC(=O)[C@@H]1OC(=O)C2OC23[C@@]1(C)CCC1[C@@]2(C)CCC(=O)C(C)(C)C2C[C@@H](OC(C)=O)[C@]13C` (stereo not given in full), the “fraction” value amounted to 0.17.
The figure for `Cn1c([N+](=O)[O-])cnc1COC(N)=O` is 0.0465; for `CC(=O)O[C@@H]1CC[C@@]2(C)[C@@H](CC[C@@H]3[C@@H]2CC[C@]2(C)C(=O)CC[C@@H]32)C1` it is 0.0408.
For `O=C(CC(=O)c1ccccc1)c1ccccc1` the value was 0.108.
On to `Nc1cc(-c2ccncc2)c[nH]c1=O`, for which the “fraction” value came out at 0.127.
Take `C[C@H]1C[C@@H]2[C@H]([C@@H](O)C[C@@]3(C)[C@H]2CC[C@]3(O)C(=O)COC(=O)CCC(=O)O)[C@@]2(C)C=CC(=O)C=C12`: the “fraction” value worked out at 0.0569.
For `COC(=O)C(N)CS` (stereo not given), the “fraction” value amounted to 0.0926.
On to `CC(N)C12CC3CC(CC(C3)C1)C2` (stereo not given), for which the “fraction” value was determined as 0.
As to `Cc1cc(O)c(C=O)c2c1C(=O)Oc1c(COC(=O)/C=C/C(=O)O)c(O)c(C(=O)O)c(C)c1O2`, the “fraction” value is 0.0741.
Turning to `O=C1CC(c2ccc(O)cc2)Oc2ccccc21` (stereo not given), the “fraction” value was found to be 0.0952.
For the compound `CN(C)CCOC(=O)COc1ccc(Cl)cc1`, the “fraction” value worked out at 0.136.
Regarding `CCCc1nc(C(C)(C)O)c(C(=O)O)n1Cc1ccc(-c2ccccc2-c2nnn[nH]2)cc1`, the “fraction” value was 0.325.
Consider `O=C(OCc1ccccc1)c1ccccc1`, for which the “fraction” value is 0.0556.
Take `OC(CCN1CCCCC1)(c1ccccc1)C1CCCCC1` (stereo not given): the “fraction” value stood at 0.0882.
Regarding `Cc1ccc2c(Cl)cc(Cl)c(O)c2n1`, the “fraction” value amounted to 0.0789.
`N=C(N)N/N=C/c1c(Cl)cccc1Cl`: the “fraction” value came to 0.316.
For the compound `COc1ccc2[nH]c([S+]([O-])Cc3ncc(C)c(OC)c3C)nc2c1` (stereo not given), the “fraction” value was found to be 0.
Take `NCCCC(N)C(=O)O` (stereo not given): the “fraction” value worked out at 0.111.
`c1ccc2c(c1)sc1ccccc12`: the “fraction” value came out at 0.093.
For the compound `O=P1(N(CCCl)CCCl)NCCCO1` (stereo not given), the “fraction” value turned out to be 0.0278.
Consider `CC(=O)Oc1c(C)c(C)c2c(c1C)CCC(C)(CCCC(C)CCCC(C)CCCC(C)C)O2` (stereo not drawn) [alpha-TOCHOPHERYL ACETATE [4mM]], for which the “fraction” value stood at 0.0185.
As for `CC(=O)Nc1ccc(O)cc1`, the “fraction” value is 0.127.
With `O=C(O)c1cc(O)c(=O)c2c(O)c(O)ccc2c1`, the “fraction” value came out at 0.255.
The figure for `O=S(=O)(O)CCCS(=O)(=O)O` is 0.196; for `C=CCSCC(N)C(=O)O` (stereo not given) it is 0.163.
With `COc1ccc2c(c1)OCC(Cc1ccc(OC)c(OC(C)=O)c1)C2=O` (stereo not given), the “fraction” value came out at 0.216.
On to `CN1C(=O)CCS(=O)(=O)C1c1ccc(Cl)cc1` (stereo not given), for which the “fraction” value was 0.194.
Turning to `CC(=O)O[C@H]1C[C@@H](OC(C)=O)C(C)(C)C2C[C@@H](O)[C@]3(C)C(CC[C@@]4(C)[C@H](c5ccoc5)OC(=O)[C@H]5O[C@]543)[C@]21C` (stereo not given in full), the “fraction” value was found to be 0.152.

Source of the values: the supplement of paper PMC5770031.
